This is an account of results in PMC4958294.

Assay [1] concerns the target T1, GST–CT2 (Gin4 residues 751–1050 fused to GST) (Candida albicans) (UniProt Q59W62).
T1 sequence: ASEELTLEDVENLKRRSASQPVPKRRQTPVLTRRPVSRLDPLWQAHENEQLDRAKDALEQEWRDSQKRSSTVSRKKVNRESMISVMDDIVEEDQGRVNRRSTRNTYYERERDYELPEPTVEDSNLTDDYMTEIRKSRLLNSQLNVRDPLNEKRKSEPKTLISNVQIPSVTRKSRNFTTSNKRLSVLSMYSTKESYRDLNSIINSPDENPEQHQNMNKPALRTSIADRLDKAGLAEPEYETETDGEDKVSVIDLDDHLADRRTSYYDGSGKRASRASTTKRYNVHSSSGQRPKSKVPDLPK
Description: pull-down; GST–CT2 purified from E. coli held on GST-Trap beads, incubated with lysates of GIN4-ON or GIN4-OFF C. albicans cells expressing Cdc12–Myc; washes with 150 mM or 1 M NaCl; western blot for Myc and GST; only the target purified. For orientation: A western blot detects proteins with antibodies after separation by electrophoresis.

Assay [2] addresses Cdc12–Myc (septin Cdc12, C-terminal Myc tag) (Candida albicans). The assay is described as follows: co-IP; CT1 with Cdc12 in GIN4-ON and GIN4-OFF C. albicans cells (Fig. S1B); beads and tags not given.

These are yes or no findings as the source states them, for the method shown. Binding seen in cells or lysates may run through a third protein. Binding can be weak; no strength is given. For some assays here: Sequences can lack the tags named with a protein.

Consider “Cdc12–Myc (septin Cdc12, C-terminal Myc tag) (Candida albicans)”, for which, in assay [1], the binding entry is “binds”.

B1: CT1 (Gin4 residues 1051–1349) (domain or fragment, UniProt Q59W62 1051-1349)
chain: NDYDDTFVSNSDEVHKRQYKSMVSDESSASDDVFDKIKLPDGKSTKSSIDELANGTSTSGHRKPKIRHSQPGPEMLIPHLNGGIESSQPMSKVRGNNSSGHDDSVPPPPPAHKVNKKPLDDKTNFPPPEVDPKRKGSFFRKLSWGSKKTIENNTNAATNTTTQQQLPSPAESKEEKPKSSFFRWFSSSNTPSAAEIRKFNTILPKHEMSTALFALLNSWSNFGLKDLRNDQVGYYITGAISKHNSFNLKSCKFRIKINQRDFNQKSEIVCVRVKGSKVTTDTLFSEIEKVLLKEGVLDK
For B1, the binding result in assay [2] is recorded as “binds”.
